In PubChem BioAssay (Tox21):
Inconclusive means that the source gave no clear call. Such entries were picked first, then a sample of the others. A call without a number means that no potency is given here. Potencies of inconclusive entries are doubtful fits and often do not repeat. Calls of active or inactive are those of the source. Calls follow the shape of the full dose curve.

assay: p53 small molecule agonists, cell-based qHTS assay: qHTS cell viability counter screen (AID 1963581); conditions: p53RE-bla HCT-116 viability, ATP luminescence, 16 h; series mostly up to 66 µM; also: nearly all actives have a fitted effect of over 45% in size
In short: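 p53RE-bla HCT-116 cells, compounds added 5 h after plating and incubated 16 h at 37 C. Cytotoxicity measured in the same wells as intracellular ATP by CellTiter-Glo luminescence after 30 min at room temperature.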
Potency is read from the fitted curve at half-maximal effect.

Row | Compound | Potency
1 | CC(C)(C)NCC(O)COc1cccc2c1CCC(=O)N2 (stereo not given) | inconclusive: 8.9 µM [rising, partial curve, poor fit]
2 | O=C1OC(=O)c2ccc3c4c(ccc1c24)C(=O)OC3=O | inactive
3 | CCCCC(CC)COC(=O)/C=C\C(=O)OCC(CC)CCCC (stereo not given) | inactive
4 | C[Si]1(C)O[Si](C)(C)O[Si](C)(C)O[Si](C)(C)O1 | inactive
5 | C=CN1CCCC1=O | inconclusive: 40.3 µM [cytotoxic, single point]
6 | CC(C)C(=O)OC/C=C/c1ccccc1 | inconclusive: 4.08 µM [cytotoxic, single point]
7 | CCOC(=O)NNc1ccc(N(CC)CC(C)O)nn1 (stereo not given) | inconclusive: 0.0071 µM [rising, full curve, poor fit]
8 | CCCCCCCCCCCCOC(=O)c1ccc(O)cc1 | inconclusive: 2.91 µM [rising, partial curve]
9 | CSc1ccc(Oc2ccc(S(N)(=O)=O)cc2CN(C)C)cc1C | inactive
10 | CCCCCCCCOCCC#N | inactive
